Measured data: PubChem BioAssay AID504808 (Drosophila RNAi Screening Center, 2011)
The deposit covers about 21,000 reagents; this is a random part of those that have a named target and a result. Of all reagents, 18 (0.084%) were called active. 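Raw counts without plate normalisation, one of two replicates; the ratio scores behind the calls were not deposited.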 Unmarked entries are inactive. Reagents against one gene are numbered here. A plus sign joins genes that one reagent is predicted to hit. No sequences are given here. The record does not give: the amount of reagent, the time to read-out.

Assay: 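Fly genes required to hold E2F transcription in check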 (primary screen)
Cells: Drosophila S2 cells
Knock-down reagent: long dsRNA against Drosophila genes
Measurement: 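Firefly luciferase driven by E2F sites, normalised to Renilla luciferase on the same minimal promoter, measured by plate reader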
Scale: E2F firefly: higher = more E2F reporter activity; Renilla normaliser: higher = more normaliser reporter signal
Rule for the call: 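a knock-down counted as active when the firefly/Renilla E2F signal rose above 50%, a threshold chosen arbitrarily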

target,reagent,"E2F firefly, rep 1","Renilla normaliser, rep 1"
CG1722,1,1.34e5,7169
Delta,1,1.55e5,6467
Rac1,1,1.07e5,4378
CG30195,1,1.07e5,4668
Cnot4,1,1.64e5,5931
Cnot4,2,1.61e5,5398
Jon66Cii,1,1.03e5,4157
CR34254,1,1.22e5,3165
EloB,1,1.39e5,6210
CG15425,1,1.58e5,4939
Shaw,1,1.44e5,5555
Shaw,2,1.39e5,4726
aru,1,1.68e5,5426
Khc,1,69098,3589
comr,1,1.02e5,4689
mlt,1,2641,201
I-3,1,1.33e5,7830
CG42582 (retired record),1,85620,2756
Rpn1,1,52697,3864
CR18275,1,53824,4437
knon,1,1.45e5,5471
CG10332 (retired record) + IM18,1,1.06e5,5144
CG14864,1,1.08e5,5770
CREG,1,1.27e5,6641
CG12236,1,5240,704
CG12236,2,99800,5969
CG8492,1,1.09e5,2932
CG9449,1,1.42e5,6951
zormin,1,1.38e5,4655
zormin,2,88001,3952
zormin,3,1.05e5,5268
zormin,4,1.04e5,4656
zormin,5,97574,4789
zormin,6,68834,3343

Records above whose target name begins with Z or z (6):
target,reagent,"E2F firefly, rep 1","Renilla normaliser, rep 1"
zormin,1,1.38e5,4655
zormin,2,88001,3952
zormin,3,1.05e5,5268
zormin,4,1.04e5,4656
zormin,5,97574,4789
zormin,6,68834,3343
